Assay results published in PMC10966776.
Results are given in words; binding and its absence hold for the method and conditions named. In cells and extracts the contact can be indirect. Some results given as binding are weak or reduced against the parent protein; the word gives no strength. Sequences can lack the tags named with a protein.

Protein sequences, listed by entry. Tags and fused reporters are not part of them.
UniProt P62330: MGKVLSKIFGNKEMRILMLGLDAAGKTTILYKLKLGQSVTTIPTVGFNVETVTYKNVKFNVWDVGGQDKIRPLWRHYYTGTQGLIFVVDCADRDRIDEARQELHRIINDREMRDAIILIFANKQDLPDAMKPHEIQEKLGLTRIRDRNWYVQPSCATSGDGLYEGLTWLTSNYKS

Target: T1, GST-GGA3 (amino acids 1-316) (UniProt Q9NZ52)
T1 sequence: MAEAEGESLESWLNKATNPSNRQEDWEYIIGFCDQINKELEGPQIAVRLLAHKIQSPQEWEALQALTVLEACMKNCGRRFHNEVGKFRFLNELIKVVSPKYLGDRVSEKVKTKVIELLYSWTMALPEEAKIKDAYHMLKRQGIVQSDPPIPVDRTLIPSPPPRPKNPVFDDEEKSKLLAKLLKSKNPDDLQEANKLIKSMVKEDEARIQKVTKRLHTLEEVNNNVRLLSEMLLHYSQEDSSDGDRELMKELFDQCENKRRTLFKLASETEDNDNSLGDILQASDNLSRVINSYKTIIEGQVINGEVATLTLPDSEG
Assay: pull-down; 50 ug GST-GGA3 1-316 precoupled to Glutathione-Sepharose beads, 2 mg lysate of HeLa cells transduced with GFP-Rab35 wt or GFP-Rab35 R27H; 50 mM Tris-HCl pH 7.4, 150 mM NaCl, 10 mM MgCl2, 1% Triton, 0.5% deoxycholate, 0.1% SDS, 5% glycerol; 1 h at 4 °C; anti-Arf6 immunoblot; only the target purified

Arf6 (from UniProt P62330 1-175)
binding: binds
